# Reference: the supplement of paper PMC4635364
# Structures can show the parent of a compound that is named as a salt. This is one part of the list. Single values are uncertain here, since repeats match poorly.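 ReNCell VM, a human fetal ventral-midbrain neural progenitor line, was differentiated without mitogens. Blinded raters scored images stained for doublecortin (early neurons) or tyrosine hydroxylase (dopaminergic neurons) against untreated wells (0 = no change). Scores were averaged across repeats and both raters, and compounds averaging 2 or more were selected as hits for retesting.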
# Experiments:
# [1] = tested on: ReNCell VM; assay: neuronal differentiation score (DCX+ cell fraction vs untreated, manual image score) (score (-3 to 3)); higher = more neuronal differentiation; settings: 2 uM, 2 weeks
# [2] = tested on: ReNCell VM; assay: dopaminergic neuron differentiation score (TH+ cell fraction vs untreated, manual image score) (score (0 to 3)); higher = more TH+ dopaminergic neuron differentiation; settings: 2 uM, 4 weeks, BDNF 10 ng/ml + GDNF 10 ng/ml
smiles,measurement,setting,value
CC1C=CC=CCCC=CC=CC=CC=CC(OC2OC(C)C(O)C(N)C2O)CC2OC(O)(CC(O)C(O)CCC(O)CC(O)CC(O)CC(=O)OC(C)C(C)C1O)CC(O)C2C(=O)O (stereo not given),neuronal differentiation score,[1]; library: Spectrum,inactive: 0
same,dopaminergic neuron differentiation score,[2]; library: Spectrum,inactive: 0
CC(=O)[C@H]1CC[C@H]2[C@@H]3CC[C@@H]4C[C@H](O)CC[C@]4(C)[C@H]3CC[C@]12C,neuronal differentiation score,[1]; library: Spectrum,inactive: 0
same,dopaminergic neuron differentiation score,[2]; library: Spectrum,inactive: 0
"C[N+]1(C)CCc2cc3c(cc2[C@H]1[C@@H]1OC(=O)c2c1ccc1c2OCO1)OCO3 [(-)-Bicuculline methbromide, 1(S), 9(R)]",neuronal differentiation score,[1]; library: LOPAC,inactive: 0
same,dopaminergic neuron differentiation score,[2]; library: LOPAC,inactive: 0
OC[C@@H](O)[C@H]1O[C@@H]2O[C@H](C(Cl)(Cl)Cl)O[C@@H]2[C@H]1O,neuronal differentiation score,[1]; library: Spectrum,inactive: 0
same,dopaminergic neuron differentiation score,[2]; library: Spectrum,inactive: 0
CC(N)C(O)c1ccccc1 (stereo not given) [Phenylpropanolamine hydrochloride],neuronal differentiation score,[1]; library: Prestwick,inactive: 0
same,dopaminergic neuron differentiation score,[2]; library: Prestwick,inactive: 0
NP(N)(=O)NC(=O)c1ccc(F)cc1 [Flurofamide],neuronal differentiation score,[1]; library: Tocriscreen,inactive: 0
same,dopaminergic neuron differentiation score,[2]; library: Tocriscreen,inactive: 0
CC[C@H]1CN2CCc3cc(OC)c(OC)cc3[C@@H]2C[C@@H]1C[C@H]1NCCc2cc(OC)c(OC)cc21 [Emetine dihydrochloride],neuronal differentiation score,[1]; library: Phytochemical,inactive: 0
same,dopaminergic neuron differentiation score,[2]; library: Phytochemical,inactive: 0
C=C(C)[C@H]1Cc2c(ccc3c2O[C@@H]2COc4cc(OC)c(OC)cc4[C@@H]2C3=O)O1,neuronal differentiation score,[1]; library: Spectrum,inactive: 0
same,dopaminergic neuron differentiation score,[2]; library: Spectrum,inactive: 0
CC[C@@H](CO)NC(=O)[C@@H]1C=C2c3cccc4[nH]cc(c34)C[C@H]2N(C)C1,neuronal differentiation score,[1]; library: Spectrum,inactive: 0
same,dopaminergic neuron differentiation score,[2]; library: Spectrum,inactive: 0
C[C@]12CC[C@@H](O)C[C@@H]1CC[C@@H]1[C@@H]2CC[C@]2(C)C(=O)CC[C@@H]12,neuronal differentiation score,[1]; library: Spectrum,inactive: 0
same,dopaminergic neuron differentiation score,[2]; library: Spectrum,inactive: 0
C/C=C(/C)C(=O)O[C@H]1CC[C@@]2(C)[C@@H]3CC[C@H]4[C@]5(O)C[C@H](O)[C@@]6(O)[C@@H](CN7C[C@@H](C)CC[C@H]7[C@@]6(C)O)[C@]5(O)C[C@]42O[C@]13O [Veratrine],neuronal differentiation score,[1]; library: Phytochemical,inactive: 0
same,dopaminergic neuron differentiation score,[2]; library: Phytochemical,inactive: 0
COc1cc(OC)c2c(c1)O[C@H](c1ccc(OC)c(OC)c1)[C@@H](O)C2,neuronal differentiation score,[1]; library: Spectrum,inactive: 0
same,dopaminergic neuron differentiation score,[2]; library: Spectrum,inactive: 0
C#C[C@]1(O)CC[C@H]2[C@@H]3CCC4=Cc5nc6nc7ccccc7n6cc5C[C@]4(C)[C@H]3CC[C@@]21C,neuronal differentiation score,[1]; library: LOPAC,inactive: -3
same,dopaminergic neuron differentiation score,[2]; library: LOPAC,inactive: 0
CC(N)C(O)c1ccccc1 (stereo not given),neuronal differentiation score,[1]; library: Spectrum,inactive: 0
same,dopaminergic neuron differentiation score,[2]; library: Spectrum,inactive: 0
NC(N)=NOCC[C@H](N)C(=O)O [L-Canavanine],neuronal differentiation score,[1]; library: LOPAC,inactive: 0
same,dopaminergic neuron differentiation score,[2]; library: LOPAC,inactive: 0
CCCN1CCC[C@@H](c2cccc(C#N)c2)C1 [S(-)-DS 121 hydrochloride],neuronal differentiation score,[1]; library: LOPAC,inactive: 0
same,dopaminergic neuron differentiation score,[2]; library: LOPAC,inactive: 0
CN(N=O)c1cc(O)ccc1O [Dephostatin],neuronal differentiation score,[1]; library: LOPAC,inactive: 0
same,dopaminergic neuron differentiation score,[2]; library: LOPAC,inactive: 0
Nc1ccncc1,neuronal differentiation score,[1]; library: Spectrum,inactive: 0
same,dopaminergic neuron differentiation score,[2]; library: Spectrum,inactive: 0
CCOP(=S)(OCC)Oc1nc(Cl)c(Cl)cc1Cl,neuronal differentiation score,[1]; library: Spectrum,inactive: 0
same,dopaminergic neuron differentiation score,[2]; library: Spectrum,inactive: 1
COc1cc([C@@H]2c3cc4c(cc3[C@H](O)[C@H]3COC(=O)[C@H]23)OCO4)cc(OC)c1OC [podophyllotoxin],neuronal differentiation score,[1]; library: Natural,inactive: 0
same,dopaminergic neuron differentiation score,[2]; library: Natural,inactive: 0
CN1CCC2=C[C@H](O)[C@H]3OC(=O)c4cc5c(cc4[C@H]3[C@@H]21)OCO5 [hippeastrine],neuronal differentiation score,[1]; library: Natural,inactive: 0
same,dopaminergic neuron differentiation score,[2]; library: Natural,inactive: 0
CC1=C2C(=CO[C@H](C)[C@H]2C)C(O)=C(C(=O)O)C1=O,neuronal differentiation score,[1]; library: Spectrum,inactive: 0
same,dopaminergic neuron differentiation score,[2]; library: Spectrum,inactive: 0
C=CCN1CC[C@]23c4c5ccc(O)c4O[C@H]2C(=O)CC[C@@]3(O)[C@H]1C5,neuronal differentiation score,[1]; library: Spectrum,inactive: 0
same,dopaminergic neuron differentiation score,[2]; library: Spectrum,inactive: 0
COc1ccc(Cc2nccc3cc(OC)c(OC)cc23)cc1OC,neuronal differentiation score,[1]; library: Spectrum,inactive: 0
same,dopaminergic neuron differentiation score,[2]; library: Spectrum,active: 3
CC1=NCCc2c1[nH]c1cc(O)ccc21 [Harmalol hydrochloride dihydrate],neuronal differentiation score,[1]; library: Phytochemical,inactive: 0
same,dopaminergic neuron differentiation score,[2]; library: Phytochemical,inactive: 0
CN(C)C(=O)Oc1ccc[n+](C)c1,neuronal differentiation score,[1]; library: Spectrum,inactive: -1
same,dopaminergic neuron differentiation score,[2]; library: Spectrum,inactive: 0
C[N+]1(C)CCOC(O)(c2ccc(-c3ccc(C4(O)C[N+](C)(C)CCO4)cc3)cc2)C1 (stereo not given) [Hemicholinium-3],neuronal differentiation score,[1]; library: LOPAC,inactive: 0
same,dopaminergic neuron differentiation score,[2]; library: LOPAC,inactive: 0
NCC(CC(=O)O)c1ccc(Cl)cc1 (stereo not given),neuronal differentiation score,[1]; library: Spectrum,inactive: 1
same,dopaminergic neuron differentiation score,[2]; library: Spectrum,inactive: 0
CCSCC[C@H](N)C(=O)O,neuronal differentiation score,[1]; library: Spectrum,inactive: 0
same,dopaminergic neuron differentiation score,[2]; library: Spectrum,inactive: 0
"CC(=O)[C@H]1CC[C@H]2[C@@H]3CC[C@H]4C[C@H](O)CC[C@]4(C)[C@H]3C(=O)C[C@]12C [5alpha-Pregnan-3alpha-ol-11,20-dione]",neuronal differentiation score,[1]; library: LOPAC,inactive: 0
same,dopaminergic neuron differentiation score,[2]; library: LOPAC,inactive: 0
"CN(N=O)c1ccc(O)c(O)c1 [Me-3,4-dephostatin]",neuronal differentiation score,[1]; library: LOPAC,inactive: 0
same,dopaminergic neuron differentiation score,[2]; library: LOPAC,inactive: 0
O=[N+]([O-])c1ccc([As](=O)(O)O)cc1,neuronal differentiation score,[1]; library: Spectrum,inactive: 1
same,dopaminergic neuron differentiation score,[2]; library: Spectrum,inactive: 0
O=P1(NCCCl)OCCCN1CCCl (stereo not given) [Ifosfamide],neuronal differentiation score,[1]; library: Prestwick,inactive: 0
same,dopaminergic neuron differentiation score,[2]; library: Prestwick,inactive: 0
COP(=O)(OC)C(O)C(Cl)(Cl)Cl (stereo not given),neuronal differentiation score,[1]; library: Spectrum,inactive: 0
same,dopaminergic neuron differentiation score,[2]; library: Spectrum,inactive: 0
CC(=O)c1c(O)c(C)c(O)c(Cc2c(O)c3c(c(C(=O)/C=C/c4ccccc4)c2O)OC(C)(C)C=C3)c1O [Rottlerin],neuronal differentiation score,[1]; library: LOPAC,inactive: 0
same,dopaminergic neuron differentiation score,[2]; library: LOPAC,inactive: 0
CN1C[C@H](C(=O)N[C@]2(C)O[C@@]3(O)[C@@H]4CCCN4C(=O)[C@H](Cc4ccccc4)N3C2=O)C[C@@H]2c3cccc4[nH]cc(c34)C[C@H]21,neuronal differentiation score,[1]; library: Spectrum,inactive: 0
same,dopaminergic neuron differentiation score,[2]; library: Spectrum,inactive: 0
"CCCN(CCC)CCc1c[nH]c2ccc(C(N)=O)cc12 [N,N-Dipropyl-5-carboxamidotryptamine maleate]",neuronal differentiation score,[1]; library: LOPAC,inactive: -1
same,dopaminergic neuron differentiation score,[2]; library: LOPAC,inactive: 0
C[N+]1(C)C2CCC1CC(OC(=O)c1c[nH]c3ccccc13)C2 (stereo not given) [3-Tropanylindole-3-carboxylate methiodide],neuronal differentiation score,[1]; library: LOPAC,inactive: 0
same,dopaminergic neuron differentiation score,[2]; library: LOPAC,inactive: 0
CCOc1cc(C=O)ccc1O,neuronal differentiation score,[1]; library: Spectrum,inactive: 0
same,dopaminergic neuron differentiation score,[2]; library: Spectrum,inactive: 0
C[C@@H]1C[C@@H]([C@H](O)CC2CC(=O)NC(=O)C2)C(=O)[C@@H](C)C1,neuronal differentiation score,[1]; library: Spectrum,inactive: 0
same,dopaminergic neuron differentiation score,[2]; library: Spectrum,inactive: 0
C#C[C@]1(O)CC[C@H]2[C@@H]3CCC4=CC(=O)CC[C@]4(C)[C@H]3CC[C@@]21C,neuronal differentiation score,[1]; library: Spectrum,inactive: 0
same,dopaminergic neuron differentiation score,[2]; library: Spectrum,inactive: 0
O=C1CC[C@@]2(O)[C@H]3Cc4ccc(O)c5c4[C@@]2(CCN3CC2CC2)[C@H]1O5 [Naltrexone hydrochloride dihydrate],neuronal differentiation score,[1]; library: Prestwick,inactive: 0
same,dopaminergic neuron differentiation score,[2]; library: Prestwick,inactive: 0
CC(C)CC(N(C)C)C1(c2ccc(Cl)cc2)CCC1 (stereo not given),neuronal differentiation score,[1]; library: Spectrum,inactive: 0
same,dopaminergic neuron differentiation score,[2]; library: Spectrum,inactive: 0
COc1ccc2c(c1OC)C(=O)O[C@@H]2[C@H]1c2cc3c(cc2CCN1C)OCO3 [Hydrastine],neuronal differentiation score,[1]; library: Phytochemical,inactive: 0
same,dopaminergic neuron differentiation score,[2]; library: Phytochemical,inactive: 0
CN1CC[C@]23CCCC[C@H]2[C@H]1Cc1ccc(O)cc13 [17-methylmorphinan-3-ol],neuronal differentiation score,[1]; library: Natural,inactive: -1
same,dopaminergic neuron differentiation score,[2]; library: Natural,inactive: 0
O=C(O)Cc1cnc[nH]1 [Imidazole-4-acetic acid hydrochloride],neuronal differentiation score,[1]; library: LOPAC,inactive: 0
same,dopaminergic neuron differentiation score,[2]; library: LOPAC,inactive: 0
N[C@@H](CCl)C(=O)O [beta-Chloro-L-alanine hydrochloride],neuronal differentiation score,[1]; library: LOPAC,inactive: 0
same,dopaminergic neuron differentiation score,[2]; library: LOPAC,inactive: 0
COc1cc2c(cc1OC)[C@@H]1C(=O)c3ccc4oc(C(C)C)cc4c3O[C@@H]1CO2,neuronal differentiation score,[1]; library: Spectrum,inactive: 0
same,dopaminergic neuron differentiation score,[2]; library: Spectrum,inactive: 0
COC(C)(C)CCC[C@H](C)C/C=C/C(C)=C/C(=O)OC(C)C,neuronal differentiation score,[1]; library: Spectrum,inactive: 0
same,dopaminergic neuron differentiation score,[2]; library: Spectrum,inactive: 1
C=CCC1(C(C)CCC)C(=O)NC(=S)NC1=O (stereo not given),neuronal differentiation score,[1]; library: Spectrum,inactive: 0
same,dopaminergic neuron differentiation score,[2]; library: Spectrum,inactive: 0
CCCN(C/C=C/I)C1CCc2ccc(O)cc2C1 (stereo not given) [7-Hydroxy-PIPAT maleate],neuronal differentiation score,[1]; library: Tocriscreen,inactive: 0
same,dopaminergic neuron differentiation score,[2]; library: Tocriscreen,inactive: 0
O=C(O)CF,neuronal differentiation score,[1]; library: Spectrum,inactive: 0
same,dopaminergic neuron differentiation score,[2]; library: Spectrum,inactive: 0
CC(Cc1ccccc1)NCCC(c1ccccc1)c1ccccc1 (stereo not given) [Prenylamine lactate],neuronal differentiation score,[1]; library: Prestwick,inactive: 0
same,dopaminergic neuron differentiation score,[2]; library: Prestwick,inactive: 0
CC(C)c1c(CN(C)C(C)Cc2ccccc2)n(C)n(-c2ccccc2)c1=O (stereo not given) [Famprofazone],neuronal differentiation score,[1]; library: Prestwick,inactive: 0
same,dopaminergic neuron differentiation score,[2]; library: Prestwick,inactive: 0
C[C@@H]1CC[C@H]2[C@@H](C)C(=O)O[C@@H]3O[C@@]4(C)CC[C@@H]1[C@]32OO4 [artemisinin],neuronal differentiation score,[1]; library: Natural,inactive: 0
same,dopaminergic neuron differentiation score,[2]; library: Natural,inactive: 0

# Reformatted: entries from further up.
smiles	measurement	setting	value
CC(N)C(O)c1ccccc1 (stereo not given) [Phenylpropanolamine hydrochloride]	dopaminergic neuron differentiation score	[2]; library: Prestwick	inactive: 0
CN(C)C(=O)Oc1ccc[n+](C)c1	dopaminergic neuron differentiation score	[2]; library: Spectrum	inactive: 0
NCC(CC(=O)O)c1ccc(Cl)cc1 (stereo not given)	neuronal differentiation score	[1]; library: Spectrum	inactive: 1
CCOc1cc(C=O)ccc1O	dopaminergic neuron differentiation score	[2]; library: Spectrum	inactive: 0
C[C@@H]1CC[C@H]2[C@@H](C)C(=O)O[C@@H]3O[C@@]4(C)CC[C@@H]1[C@]32OO4 [artemisinin]	dopaminergic neuron differentiation score	[2]; library: Natural	inactive: 0

# Another view of part of the listing above:
smiles	measurement	setting	value
NP(N)(=O)NC(=O)c1ccc(F)cc1 [Flurofamide]	dopaminergic neuron differentiation score	[2]; library: Tocriscreen	inactive: 0
CN(N=O)c1cc(O)ccc1O [Dephostatin]	dopaminergic neuron differentiation score	[2]; library: LOPAC	inactive: 0
